Data from US20230212285A1.
Positions count from the first letter of the chain named. Results are given in words; binding and its absence hold for the method and conditions named. Some binding calls cover weakened binding; strength is not graded here. Values belong to the binder of their own block, whether it stands above or below them.

By UniProt entry, the sequences of proteins in these tests, tags left out. Where a name states a change or a piece, a line headed by the entry shows the natural chain unless it says otherwise.
UniProt P10721: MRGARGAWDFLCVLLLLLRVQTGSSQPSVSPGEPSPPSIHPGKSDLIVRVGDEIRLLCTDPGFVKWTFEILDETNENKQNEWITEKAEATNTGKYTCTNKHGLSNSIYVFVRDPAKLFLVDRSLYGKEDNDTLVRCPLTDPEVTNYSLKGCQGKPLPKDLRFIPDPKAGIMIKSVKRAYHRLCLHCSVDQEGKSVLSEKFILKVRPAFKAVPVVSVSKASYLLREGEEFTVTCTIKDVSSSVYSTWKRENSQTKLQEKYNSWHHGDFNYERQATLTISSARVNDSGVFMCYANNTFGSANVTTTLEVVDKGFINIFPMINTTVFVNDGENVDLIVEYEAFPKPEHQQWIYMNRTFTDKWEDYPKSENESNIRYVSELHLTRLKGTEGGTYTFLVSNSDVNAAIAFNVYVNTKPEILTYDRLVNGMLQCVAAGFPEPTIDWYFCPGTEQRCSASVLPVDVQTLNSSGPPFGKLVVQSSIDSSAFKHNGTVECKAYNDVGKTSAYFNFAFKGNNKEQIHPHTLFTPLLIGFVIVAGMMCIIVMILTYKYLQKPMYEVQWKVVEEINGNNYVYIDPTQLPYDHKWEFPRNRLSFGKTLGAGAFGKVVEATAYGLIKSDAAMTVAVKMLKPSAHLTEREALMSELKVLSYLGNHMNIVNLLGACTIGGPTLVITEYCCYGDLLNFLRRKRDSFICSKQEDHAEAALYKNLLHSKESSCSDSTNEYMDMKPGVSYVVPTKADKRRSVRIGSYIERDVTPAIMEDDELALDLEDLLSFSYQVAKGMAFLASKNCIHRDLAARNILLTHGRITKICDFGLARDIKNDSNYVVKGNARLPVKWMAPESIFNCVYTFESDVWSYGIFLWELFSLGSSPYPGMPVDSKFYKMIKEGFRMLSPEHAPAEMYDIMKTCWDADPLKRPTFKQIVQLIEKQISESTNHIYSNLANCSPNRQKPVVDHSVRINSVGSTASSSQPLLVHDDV

What was measured:
[1] = biological target: human C-KIT-Fc protein (human) (UniProt P10721); experiment: direct titration ELISA
[2] = biological target: human C-KIT on stably transfected CHO-K1 cells (human) (UniProt P10721); experiment: flow cytometry

binding [1]: binds
B12: TTP2 (antibody, human IgG1, V domains shown)
VH: QVQLVQSGAEVKKPGASVKVSCKASGYTFTDYYMNWVRQAPGQGLEWMGRIYPGSGNTYYAQKFQGRVTMTRDTSTSTVYMELSSLRSEDTAVYYCARGVYYYDYWGQGTLVTVSS
VL: DIQMTQSPSSLSASVGDRVTITCRASQGIRTNLAWFQQKPGKAPKSLIYAASSLQSGVPSRFSGSGSGTDFTLTISSLQPEDFATYYCQQYNSYPHTFGGGTKVEIK

binding [1]: binds
B13: MH5.26 (antibody, human IgG1, V domains shown)
VH: B12 VH with D31N, S55T, Y101W, Y103F, Y105S
VL: B12 VL with N92A, S93N, H96R

binding [1]: binds
B14: MH5.28 (antibody, human IgG1, V domains shown)
VH: B12 VH with D31N, S55T, Y101W, Y103F, Y105E
VL: B12 VL with N92A, S93N, H96R

binding [1]: binds
B15: MH5.36 (antibody, human IgG1, V domains shown)
VH: B12 VH with D31N, G54A, Y101W, Y103F, Y105E
VL: B12 VL with N92A, S93N, H96R

binding [1]: binds
B16: MH6 (antibody, human IgG1, V domains shown)
VH: B12 VH
VL: B12 VL with A50S, H96K

binding [1]: binds
B19: MH5.25 (antibody, human IgG1, V domains shown)
VH: B12 VH with Y32F, G54A, Y101W, Y103F, Y105E
VL: B12 VL with N92A, S93N, H96R

binding [1]: binds
B20: MH11 (antibody, human IgG1, V domains shown)
VH: B12 VH
VL: B12 VL with S93A, H96R

binding [1]: binds
B21: TTP4 (antibody, human IgG1, V domains shown)
VH: B12 VH
VL: B12 VL with I29V, A50S, S93A

binding [1]: binds
B23: MH12 (antibody, human IgG1, V domains shown)
VH: B12 VH
VL: B12 VL with I29V, H96R

binding [1]: binds
B25: MH5.31 (antibody, human IgG1, V domains shown)
VH: B12 VH with D31N, S55A, Y101W, Y103F, Y105T
VL: B12 VL with N92A, S93N, H96R

binding [2]: binds
B26: MH5.33 (antibody, human IgG1, V domains shown)
VH: B12 VH with D31N, G54A, Y101W
VL: B12 VL with N92A, S93N, H96R

binding [1]: binds
B32: MH7 (antibody, human IgG1, V domains shown)
VH: B12 VH
VL: B12 VL with A50S

binding [1]: binds
binding [2]: binds
B35: MH5.24 (antibody, human IgG1, V domains shown)
VH: B12 VH with Y32F, G54A, Y101W, Y103F, Y105T
VL: B12 VL with N92A, S93N, H96R

binding [1]: binds
B36: MH13 (antibody, human IgG1, V domains shown)
VH: B12 VH
VL: B12 VL with I29V, S93A, H96R

binding [1]: binds
B37: MH8 (antibody, human IgG1, V domains shown)
VH: B12 VH
VL: B12 VL with A50S, N92S, H96R

binding [1]: binds
B39: MH5.32 (antibody, human IgG1, V domains shown)
VH: B12 VH with D31N, S55A, Y101W, Y103F, Y105E
VL: B12 VL with N92A, S93N, H96R

binding [1]: binds
B40: MH5.29 (antibody, human IgG1, V domains shown)
VH: B12 VH with D31N, S55A, Y101W
VL: B12 VL with N92A, S93N, H96R

binding [1]: binds
B41: MH5.30 (antibody, human IgG1, V domains shown)
VH: B12 VH with D31N, S55A, Y101W, Y103F, Y105S
VL: B12 VL with N92A, S93N, H96R

binding [1]: binds
B42: TTP6 (antibody, human IgG1, V domains shown)
VH: B12 VH
VL: B12 VL with I29V, S93A

binding [1]: binds
B43: MH5.35 (antibody, human IgG1, V domains shown)
VH: B12 VH with D31N, G54A, Y101W, Y103F, Y105T
VL: B12 VL with N92A, S93N, H96R

binding [1]: binds
B44: MH5.27 (antibody, human IgG1, V domains shown)
VH: B12 VH with D31N, S55T, Y101W, Y103F, Y105T
VL: B12 VL with N92A, S93N, H96R

binding [1]: binds
B45: MH10 (antibody, human IgG1, V domains shown)
VH: B12 VH
VL: B12 VL with A50S, N92T, H96R

Second part, the binder before the results:

B1: F-C5 (antibody, human IgG1, V domains shown)
VH: B12 VH with Y103F, Y105E
VL: B12 VL with I29V, L54R, H96R
binding [1]: binds

B2: MH5.18 (antibody, human IgG1, V domains shown)
VH: B12 VH with Y32F, S55A, Y101W
VL: B12 VL with N92A, S93N, H96R
binding [1]: binds

B3: MH3 (antibody, human IgG1, V domains shown)
VH: B12 VH
VL: B12 VL with A50S, S93A, H96R
binding [1]: binds

B4: MH5.6 (antibody, human IgG1, V domains shown)
VH: B12 VH with Y32H, S55T, Y101W, Y103F, Y105E
VL: B12 VL with N92A, S93N, H96R
binding [1]: binds

B5: MH5.23 (antibody, human IgG1, V domains shown)
VH: B12 VH with Y32F, G54A, Y101W, Y103F, Y105S
VL: B12 VL with N92A, S93N, H96R
binding [1]: binds
binding [2]: binds

B6: MH5.14 (antibody, human IgG1, V domains shown)
VH: B12 VH with Y32H, G54A, Y101W, Y103F, Y105E
VL: B12 VL with N92A, S93N, H96R
binding [1]: binds

B7: MH5.5 (antibody, human IgG1, V domains shown)
VH: B12 VH with Y32H, S55T, Y101W, Y103F, Y105T
VL: B12 VL with N92A, S93N, H96R
binding [1]: binds

B8: MH5.15 (antibody, human IgG1, V domains shown)
VH: B12 VH with Y32F, S55T, Y101W, Y103F, Y105S
VL: B12 VL with N92A, S93N, H96R
binding [1]: binds

B9: MH5.10 (antibody, human IgG1, V domains shown)
VH: B12 VH with Y32H, S55A, Y101W, Y103F, Y105E
VL: B12 VL with N92A, S93N, H96R
binding [1]: binds

B10: MH5.21 (antibody, human IgG1, V domains shown)
VH: B12 VH with Y32F, S55A, Y101W, Y103F, Y105E
VL: B12 VL with N92A, S93N, H96R
binding [1]: binds

B11: MH2 (antibody, human IgG1, V domains shown)
VH: B12 VH
VL: B12 VL with A50S, N92A, H96R
binding [1]: binds

B17: MH5.11 (antibody, human IgG1, V domains shown)
VH: B12 VH with Y32H, G54A, Y101W
VL: B12 VL with N92A, S93N, H96R
binding [1]: binds

B18: MH5.12 (antibody, human IgG1, V domains shown)
VH: B12 VH with Y32H, G54A, Y101W, Y103F, Y105S
VL: B12 VL with N92A, S93N, H96R
binding [1]: binds

B22: MH5.13 (antibody, human IgG1, V domains shown)
VH: B12 VH with Y32H, G54A, Y101W, Y103F, Y105T
VL: B12 VL with N92A, S93N, H96R
binding [1]: binds

B24: MH5.2 (antibody, human IgG1, V domains shown)
VH: B12 VH with Y32F, S55T, Y101W
VL: B12 VL with N92A, S93N, H96R
binding [1]: binds
binding [2]: binds

B27: MH5.1 (antibody, human IgG1, V domains shown)
VH: B12 VH with D31N, S55T, Y101W
VL: B12 VL with N92A, S93N, H96R
binding [1]: binds
binding [2]: binds

B28: MH5.19 (antibody, human IgG1, V domains shown)
VH: B12 VH with Y32F, S55A, Y101W, Y103F, Y105S
VL: B12 VL with N92A, S93N, H96R
binding [1]: binds

B29: MH5.8 (antibody, human IgG1, V domains shown)
VH: B12 VH with Y32H, S55A, Y101W, Y103F, Y105S
VL: B12 VL with N92A, S93N, H96R
binding [1]: binds

B30: MH5.16 (antibody, human IgG1, V domains shown)
VH: B12 VH with Y32F, S55T, Y101W, Y103F, Y105T
VL: B12 VL with N92A, S93N, H96R
binding [1]: binds

B31: MH5.20 (antibody, human IgG1, V domains shown)
VH: B12 VH with Y32F, S55A, Y101W, Y103F, Y105T
VL: B12 VL with N92A, S93N, H96R
binding [1]: binds

B33: MH5.3 (antibody, human IgG1, V domains shown)
VH: B12 VH with Y32H, S55T, Y101W
VL: B12 VL with N92A, S93N, H96R
binding [1]: binds

B34: MH5.4 (antibody, human IgG1, V domains shown)
VH: B12 VH with Y32H, S55T, Y101W, Y103F, Y105S
VL: B12 VL with N92A, S93N, H96R
binding [1]: binds

B38: MH5.17 (antibody, human IgG1, V domains shown)
VH: B12 VH with Y32F, S55T, Y101W, Y103F, Y105E
VL: B12 VL with N92A, S93N, H96R
binding [1]: binds

B46: MH5.9 (antibody, human IgG1, V domains shown)
VH: B12 VH with Y32H, S55A, Y101W, Y103F, Y105T
VL: B12 VL with N92A, S93N, H96R
binding [1]: binds

B47: MH5.7 (antibody, human IgG1, V domains shown)
VH: B12 VH with Y32H, S55A, Y101W
VL: B12 VL with N92A, S93N, H96R
binding [1]: binds
